The subject of test [1] is ReNCell VM. As to the kind of experiment: neuronal differentiation score (DCX+ cell fraction vs untreated, manual image score) (score (-3 to 3)); higher = more neuronal differentiation. The following applies: 2 uM, 2 weeks.
In test [2] the test system is ReNCell VM. As to the kind of experiment: dopaminergic neuron differentiation score (TH+ cell fraction vs untreated, manual image score) (score (0 to 3)); higher = more TH+ dopaminergic neuron differentiation. The following applies: 2 uM, 4 weeks, BDNF 10 ng/ml + GDNF 10 ng/ml.

Some of the results follow. Repeats in this data set agree poorly, so a single value says little.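 Human fetal ventral-midbrain neural progenitor line ReNCell VM, differentiated without mitogens. Images stained for doublecortin (early neurons) or tyrosine hydroxylase (dopaminergic neurons) were scored by blinded raters against untreated wells (0 = no change). Repeats and both raters were averaged, and compounds averaging 2 or higher were picked as hits for retesting.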

In the case of `NC(=O)c1cnccn1` [Pyrazinecarboxamide], the neuronal differentiation score in the test on ReNCell VM [1] (library: LOPAC) was inactive: -1. Besides, the “dopaminergic neuron differentiation score” value with ReNCell VM [2] (library: LOPAC) was inactive: 0.
For `OCC(CO)N[C@H]1C[C@](O)(CO)[C@@H](O)[C@H](O)[C@H]1O` [Voglibose], in the test on ReNCell VM [1] (library: Tocriscreen), the neuronal differentiation score is inactive: 0. Further, the “dopaminergic neuron differentiation score” value in the test with ReNCell VM [2] (library: Tocriscreen) is inactive: 0.
On to `O=C(O)c1cc(=O)[nH]c(=O)[nH]1`, for which the neuronal differentiation score in the test on ReNCell VM [1] (library: Spectrum) was inactive: 0. Moreover, the “dopaminergic neuron differentiation score” value in the test with ReNCell VM [2] (library: Spectrum) is inactive: 0.
Consider `OC[C@H]1O[C@@H](n2cnc3c(NCc4ccco4)ncnc32)[C@H](O)[C@@H]1O` [kinetin riboside], for which the neuronal differentiation score in the test on ReNCell VM [1] (library: Natural) was inactive: -1. Moreover, in the test on ReNCell VM [2] (library: Natural), the “dopaminergic neuron differentiation score” value was inactive: 0.
As for `Nc1nc(NCCc2ccc(O)cc2)nc2nc(-c3ccco3)nn12`, the neuronal differentiation score in the test on ReNCell VM [1] (library: Tocriscreen) is inactive: 0. Also, the “dopaminergic neuron differentiation score” value with ReNCell VM [2] (library: Tocriscreen) is inactive: 0.
`Nc1c(S(=O)(=O)O)cc(Nc2ccc(Nc3nc(Cl)nc(Nc4cccc(S(=O)(=O)O)c4)n3)c(S(=O)(=O)O)c2)c2c1C(=O)c1ccccc1C2=O` [Reactive Blue 2]: in the test with ReNCell VM [1] (library: LOPAC), the neuronal differentiation score was inactive: 0. Further, in the test on ReNCell VM [2] (library: LOPAC), the “dopaminergic neuron differentiation score” value is inactive: 0.
`CC(=O)OCC(=O)[C@@]1(O)CC[C@H]2[C@@H]3CCC4=CC(=O)C=C[C@]4(C)[C@@]3(F)[C@@H](O)C[C@@]21C` [Isoflupredone acetate]: the neuronal differentiation score in the test with ReNCell VM [1] (library: Prestwick) was inactive: 0. For the same compound, the “dopaminergic neuron differentiation score” value in the test on ReNCell VM [2] (library: Prestwick) is inactive: 0.
Regarding `C/C(=C(\CCOP(=O)(O)O)SC(=O)c1ccccc1)N(C=O)Cc1cnc(C)nc1N` [Benfotiamine], the neuronal differentiation score with ReNCell VM [1] (library: Prestwick) is inactive: 0. In addition, the “dopaminergic neuron differentiation score” value with ReNCell VM [2] (library: Prestwick) was inactive: 0.
As to `Oc1cc2c(cc1O)C1c3ccc(O)c(O)c3OCC1(O)C2` (configuration not stated), the neuronal differentiation score in the test with ReNCell VM [1] (library: Spectrum) was inactive: 0. For the same compound, in the test with ReNCell VM [2] (library: Spectrum), the “dopaminergic neuron differentiation score” value was inactive: 0.
For the compound `Cc1cn(C2OC[C@@H](O)[C@@H]2CO)c(=O)[nH]c1=O` (some centres not stated), the neuronal differentiation score with ReNCell VM [1] (library: Natural) was inactive: 0. Moreover, in the test on ReNCell VM [2] (library: Natural), the “dopaminergic neuron differentiation score” value is inactive: 0.
`CCN(CC)CCCCNc1ncc2cc(-c3c(Cl)cccc3Cl)c(NC(=O)NC(C)(C)C)nc2n1`: the neuronal differentiation score with ReNCell VM [1] (library: Tocriscreen) is inactive: 0. Further, the “dopaminergic neuron differentiation score” value in the test with ReNCell VM [2] (library: Tocriscreen) is inactive: 0.

Source of the values: the supplement of paper PMC4635364.
